The source of these data is PMC11322664.

These are yes or no findings as the source states them, for the method shown. In cells and extracts the contact can be indirect. Some results given as binding are weak or reduced against the parent protein; the word gives no strength.

The experiment concerns the target T1, Ferroptosis suppressor protein 1 (human (endogenous in 786-O)) (UniProt Q9BRQ8).
T1 sequence: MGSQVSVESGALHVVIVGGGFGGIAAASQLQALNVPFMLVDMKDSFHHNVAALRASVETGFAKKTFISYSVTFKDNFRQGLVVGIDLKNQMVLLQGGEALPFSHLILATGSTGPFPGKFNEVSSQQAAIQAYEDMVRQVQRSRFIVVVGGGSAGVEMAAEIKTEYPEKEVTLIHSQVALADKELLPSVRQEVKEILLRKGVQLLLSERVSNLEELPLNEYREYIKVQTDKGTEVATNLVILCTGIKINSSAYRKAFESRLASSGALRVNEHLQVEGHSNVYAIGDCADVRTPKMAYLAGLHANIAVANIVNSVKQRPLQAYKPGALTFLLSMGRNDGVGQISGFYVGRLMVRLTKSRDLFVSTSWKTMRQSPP
Nature of the experiment: co-IP; 786-O cells lysed in NP-40 buffer, pre-cleared; anti-MDH2 or anti-FSP1 rabbit polyclonal antibody (IgG as negative control), 4 °C 12 h, protein A/G Sepharose beads; Western blot with anti-MDH2 or anti-FSP1. For orientation: In western blotting, separated proteins are transferred to a membrane and probed.

B1: Malate dehydrogenase 2 (enzyme, UniProt P40926 25-338)
chain: AKVAVLGASGGIGQPLSLLLKNSPLVSRLTLYDIAHTPGVAADLSHIETKAAVKGYLGPEQLPDCLKGCDVVVIPAGVPRKPGMTRDDLFNTNATIVATLTAACAQHCPEAMICVIANPVNSTIPITAEVFKKHGVYNPNKIFGVTTLDIVRANTFVAELKGLDPARVNVPVIGGHAGKTIIPLISQCTPKVDFPQDQLTALTGRIQEAGTEVVKAKAGAGSATLSMAYAGARFVFSLVDAMNGKEGVVECSFVKSQETECTYFSTPLLLGKKGIEKNLGIGKVSSFEEKMISDAIPELKASIKKGEDFVKTLK
As to B1, the binding entry is “binds”.
